Source: PubChem BioAssay AID652259 (Drosophila RNAi Screening Center, 2013)

Screen: 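Knock-downs that push a Wingless-driven reporter up or down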 (primary screen)
Cell system: Drosophila clone 8 imaginal disc epithelial cells
Reagents: long dsRNA against Drosophila genes
Treatment: pathway stimulated by co-transfected Wingless expression plasmid
Measurement: 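Firefly luciferase from a tcf-site Wingless reporter, measured alongside co-transfected Renilla luciferase that tracks transfection; pathway stimulated by a Wingless plasmid; the firefly-to-Renilla ratio is not deposited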
Scale: firefly reporter light: higher = more Wg reporter light, before normalisation; Renilla control light: higher = more transfected or surviving cells
Hit rule: 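a knock-down is a candidate when at least two out of four statistical tests show it departing from its plate mean; one test alone signals a weak candidate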
Calls: active = candidate regulator (raises or lowers reporter); inactive = not a candidate
The screen tested about 22,000 reagents; shown is a random part of those that have a named target and a result. In the full data, 233 (1.1%) were called active. 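Light values are raw, unnormalised plate reads; the ratio scores behind the reporter calls were not deposited.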 The numbers tell different reagents against one gene apart. A plus sign joins genes that one reagent is predicted to hit. Reagent sequences are not shown. Not stated in the record: the amount of reagent, the time to read-out, the dose of the treatment.

no.	Gene	reagent	firefly reporter light, replicate 1	firefly reporter light, replicate 2	Renilla control light, replicate 1	Renilla control light, replicate 2	Outcome
1	Corin	1	3376	9577	1200	3751	inactive
2	CG7378	1	12440		7168		inactive
3	sut1	1	6912		2235		inactive
4	drn + CG43675	1	8344		3024		inactive
5	CG10254	1	2247	4304	1430	1495	inactive
6	CG9044	1	5187		2976		inactive
7	CG43063	1	3056		1122		inactive
8	croc	1	17105		6451		inactive
9	CG15515	1	6653		2738		inactive
10	Argk2	1	1553	8342	1556	3524	inactive
11	lin-52	1	27361		10107		inactive
12	Jhbp15	1	17516		3700		inactive
13	Tailor	1	8582		2941		inactive
14	CG13978	1	7963		2592		inactive
15	asRNA:CR43430 + hts	1	6587		1565		inactive
16	CG17361	1	6099		1869		inactive
17	Sh3beta	1	5201		2829		inactive
18	Sh3beta	2	4.84e5	4.86e5	1.87e5	1.89e5	inactive
19	Syx1A	1	15965		14032		inactive
20	Syx1A	2	3.89e5	3.19e5	1.62e5	1.32e5	inactive
21	CG2127	1	1906	6696	612	2449	inactive
22	Paics	1	1688	4944	745	1304	inactive
23	CG18549	1	16119		2117		inactive
24	CG8478	1	17604		4337		inactive
25	CG34175	1	6357	13417	1651	4230	inactive
26	CG30392	1	4.07e5	4.04e5	1.24e5	1.17e5	inactive
27	CG34028	1	3430		1256		inactive
28	CG6674	1	4278		1667		inactive
29	Rdl	1	3552		2038		inactive
30	Rdl	2	5319		2323		inactive
31	Kdm4A	1	14717		4346		inactive
32	fd19B	1	19409	6.72e5	14353	3.03e5	inactive
33	ssp7	1	2289		337		inactive
34	qkr58E-3	1	12117		2865		inactive
35	Rheb	1	9104		2208		inactive
36	CG18823	1	18645		12736		inactive
37	CG30094	1	4.56e5	4.57e5	1.25e5	1.14e5	inactive
38	CG7049	1	12327		3947		inactive
39	unc	1	26269		11520		inactive
40	CG13068	1	10537		5221		inactive
41	CG17258	1	4665	11793	2018	4658	inactive
42	CG17258	2	8.78e5	8.61e5	4.40e5	1.53e5	inactive
43	CG34297	1	2710		1128		inactive
44	CG14625	1	12117		7991		inactive
45	hog	1	2930		1089		inactive
46	CG13022	1	7027		3088		inactive
47	CG7384	1	10089		1948		inactive
48	Nepl14	1	15297		12179		inactive
49	CG5191	1	3910	12372	1920	3112	inactive
50	CG5191	2	15032		3237		inactive
51	CG5191	3	3.65e5	4.09e5	1.71e5	1.68e5	inactive
52	CG15047	1	36035		19220		inactive
53	CG15047	2	3.81e5	4.17e5	1.77e5	1.46e5	inactive
54	sd	1	20614		9152		inactive
55	sd	2	8.63e5	7.49e5	4.15e5	256	inactive
56	Cpr72Ea	1	5240		2269		inactive
57	MFS10	1	2476	8551	954	2224	inactive
58	CG34194	1	17221		10355		inactive
59	sv	1	16000		12704		inactive
60	Cdk2	1	2343	7648	1554	2032	inactive
61	Mdr50	1	9061		3882		inactive
62	CG42709	1	5529		2464		inactive
63	CG7650	1	9593	6.76e5	5449	2.44e5	inactive
64	CG2961	1	22992		6876		inactive
65	Keap1	1	3942	9337	1024	1993	inactive
66	CG1532	1	2369	8089	1028	2801	inactive
67	CR11023	1	3539	8128	969	2939	inactive
68	CheA87a	1	11696		3484		inactive
69	CG14257	1	6794		2662		inactive
70	Spn42Da	1	1831	6423	131	3557	inactive
71	CG8187	1	12768		3522		inactive
72	CG7142	1	17881		3744		inactive
73	hpo	1	13339		3932		inactive

12 of these entries, set out differently:
{"Gene": "CG34194", "reagent": 1, "firefly reporter light, replicate 1": 17221, "Renilla control light, replicate 1": 10355, "Outcome": "inactive"}
{"Gene": "sv", "reagent": 1, "firefly reporter light, replicate 1": 16000, "Renilla control light, replicate 1": 12704, "Outcome": "inactive"}
{"Gene": "Cdk2", "reagent": 1, "firefly reporter light, replicate 1": 2343, "firefly reporter light, replicate 2": 7648, "Renilla control light, replicate 1": 1554, "Renilla control light, replicate 2": 2032, "Outcome": "inactive"}
{"Gene": "Mdr50", "reagent": 1, "firefly reporter light, replicate 1": 9061, "Renilla control light, replicate 1": 3882, "Outcome": "inactive"}
{"Gene": "CG42709", "reagent": 1, "firefly reporter light, replicate 1": 5529, "Renilla control light, replicate 1": 2464, "Outcome": "inactive"}
{"Gene": "CG7650", "reagent": 1, "firefly reporter light, replicate 1": 9593, "firefly reporter light, replicate 2": 6.76e5, "Renilla control light, replicate 1": 5449, "Renilla control light, replicate 2": 2.44e5, "Outcome": "inactive"}
{"Gene": "CG2961", "reagent": 1, "firefly reporter light, replicate 1": 22992, "Renilla control light, replicate 1": 6876, "Outcome": "inactive"}
{"Gene": "Keap1", "reagent": 1, "firefly reporter light, replicate 1": 3942, "firefly reporter light, replicate 2": 9337, "Renilla control light, replicate 1": 1024, "Renilla control light, replicate 2": 1993, "Outcome": "inactive"}
{"Gene": "CG1532", "reagent": 1, "firefly reporter light, replicate 1": 2369, "firefly reporter light, replicate 2": 8089, "Renilla control light, replicate 1": 1028, "Renilla control light, replicate 2": 2801, "Outcome": "inactive"}
{"Gene": "CR11023", "reagent": 1, "firefly reporter light, replicate 1": 3539, "firefly reporter light, replicate 2": 8128, "Renilla control light, replicate 1": 969, "Renilla control light, replicate 2": 2939, "Outcome": "inactive"}
{"Gene": "CheA87a", "reagent": 1, "firefly reporter light, replicate 1": 11696, "Renilla control light, replicate 1": 3484, "Outcome": "inactive"}
{"Gene": "CG14257", "reagent": 1, "firefly reporter light, replicate 1": 6794, "Renilla control light, replicate 1": 2662, "Outcome": "inactive"}
